Results on 86 sequences are retold here after the supplement of paper PMC3334620.

Over roughly 33,000 sequences, “E-score (-0.5 to 0.5)” has its median near -0.015; the highest 2% begin near 0.3. Some of the results follow.

The test concerns the target T1, Abf1 (UniProt P14164).
T1 sequence: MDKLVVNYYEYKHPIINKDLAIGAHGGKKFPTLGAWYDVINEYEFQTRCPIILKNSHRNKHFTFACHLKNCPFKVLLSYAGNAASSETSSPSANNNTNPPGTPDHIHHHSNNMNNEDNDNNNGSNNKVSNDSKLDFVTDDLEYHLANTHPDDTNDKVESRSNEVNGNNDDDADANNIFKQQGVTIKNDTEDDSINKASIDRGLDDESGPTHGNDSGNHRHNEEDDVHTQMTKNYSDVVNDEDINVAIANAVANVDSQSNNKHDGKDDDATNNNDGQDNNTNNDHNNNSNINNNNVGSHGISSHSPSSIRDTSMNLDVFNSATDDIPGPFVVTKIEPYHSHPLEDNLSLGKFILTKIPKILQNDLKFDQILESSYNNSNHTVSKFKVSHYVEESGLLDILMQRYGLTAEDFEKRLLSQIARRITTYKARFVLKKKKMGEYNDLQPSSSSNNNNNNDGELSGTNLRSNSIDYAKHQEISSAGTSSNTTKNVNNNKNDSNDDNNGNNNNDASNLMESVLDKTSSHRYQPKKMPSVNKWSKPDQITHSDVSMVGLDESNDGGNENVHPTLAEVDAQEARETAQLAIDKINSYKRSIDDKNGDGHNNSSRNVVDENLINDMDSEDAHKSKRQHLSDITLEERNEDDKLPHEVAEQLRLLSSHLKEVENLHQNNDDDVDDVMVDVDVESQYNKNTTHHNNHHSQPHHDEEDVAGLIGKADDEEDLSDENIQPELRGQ
Kind of test: PBM E-score (8-mer binding enrichment) (E-score (-0.5 to 0.5)); higher = stronger / more preferred TF binding. Particulars: protein concentration: 200 nM; construct: GST-full length. Put shortly: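 Full-length yeast transcription factors or their DNA-binding domains, GST-tagged and expressed with PURExpress, were applied at about 100-200 nM to universal all-10-mer Agilent arrays. These arrays had been made double-stranded by primer extension on fresh or once-stripped slides. Detection used fluorescent anti-GST, normalisation used masliner, and E-scores for ungapped eight-base words pooled with reverse complements came from the Universal PBM Analysis Suite.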
In the case of GCTCTATA, the “PBM E-score” value was -0.0921. For CGGTTTAC the value was -0.0155; for TTTAGAAA, 0.113; for CGATCTCC, 0.0735. Turning to CTGACTGA, the “PBM E-score” value is -0.165. For AATGGACT the value was -0.0774; for AATTATAT, 0.174.

Regarding AAAGTGGG, the “PBM E-score” value is -0.106. As to CAGCTAGC, the “PBM E-score” value is -0.124. The result for AGAACAAA reads 0.238.

CGCGCGAG: the “PBM E-score” value worked out at 0.00904. For TCAGCTAA, the “PBM E-score” value is -0.0528. The result for CTAATCTC reads 0.143; that for GACCTGAA, -0.0785.

In the case of CACGAGAG, the “PBM E-score” value was determined as 0.0678. For AATGGGAT the value was -0.0703. Consider GATACATA, for which the “PBM E-score” value stood at 0.209.

With CGCATGTC, the “PBM E-score” value came to 0.156. For CCTTCCCC the value was -0.258; for CGTAACCA, 0.174; for CGGAACCG, 0.00149. For AAACGTTA the value was -0.058. For CCAAGGGC the value was -0.237. ACACCAGA: the “PBM E-score” value came out at 0.0543. For CGACACCA the value was 0.0266; for CGCGTAAG, -0.183. The result for ATTCGCCG reads 0.00282; that for CAATTATC, 0.19. The result for GTAGCGAA reads 0.056; that for CAGCGCCA, -0.213; that for ATTGAGGG, -0.0677. As to TCTTTAAA, the “PBM E-score” value stood at 0.209.

Consider AGGGTTTA, for which the “PBM E-score” value is -0.00523. For ATATCTAG the value was 0.0162. The result for CTTCGTTA reads 0.173; that for CAGGTTAG, -0.077. The result for AGACTCAC reads -0.23; that for CCGCTCCC, -0.188. Turning to ATAAGTAT, the “PBM E-score” value worked out at 0.228. The result for CCTATCGA reads 0.0347; that for CGGCCGCC, -0.12; that for AATTGTGC, 0.0989. For GATGCCAA the value was -0.0889; for CCACGACG, 0.22. The result for CGTGCTCA reads 0.12; that for TAATAGGA, 0.0547. As to GCGTACGA, the “PBM E-score” value worked out at 0.317.

For CGTCTAGA, the “PBM E-score” value amounted to 0.065. Regarding ACTTTATG, the “PBM E-score” value is -0.068. The result for CTCCCACC reads -0.257.

For the sequence CGTCAGGC, the “PBM E-score” value was -0.0236.

On to GAGGCCGA, for which the “PBM E-score” value was -0.0525.

AAACATAG: the “PBM E-score” value is -0.0521. ACTTCTAG: the “PBM E-score” value is -0.112. For TGACCACA the value was 0.0701. As for GGCCGGCA, the “PBM E-score” value is -0.157. In the case of CGCACTCA, the “PBM E-score” value is -0.013. Consider CGATAGAG, for which the “PBM E-score” value stood at 0.151. The result for ATTCCAAA reads 0.209; that for ACAATAGA, -0.00162. The result for ACATGTTC reads -0.0222; that for GCCAGTAA, -0.0765. For the sequence ATTGGGGG, the “PBM E-score” value was -0.339. The result for AGCCGTAG reads 0.212; that for CCATTGTC, -0.067; that for AAGTGCGG, -0.0465.

For the sequence CTCGCTTC, the “PBM E-score” value was -0.0819. As to ACGGTAGC, the “PBM E-score” value was 0.182. Take GGCGCAGA: the “PBM E-score” value is -0.137. For CTACAACC the value was 0.119; for ACATATGG, -0.0557.

In the case of CAAACGTG, the “PBM E-score” value stood at 0.0478.

AACGTCGA: the “PBM E-score” value amounted to 0.127. The result for GGCCGGAA reads -0.243. As to CACAATAG, the “PBM E-score” value is 0.0247. The result for TAGCATAA reads 0.0767.

Take GACCGTAA: the “PBM E-score” value is 0.0816. The result for AGACGGAC reads -0.0409. For AAGACGGG the value was 0.0614; for AAATCTTG, -0.00313. The result for TAGGACTA reads -0.103; that for CAGCTCTC, -0.271. Take GCATTACC: the “PBM E-score” value was -0.0384.

Turning to CAGCAGTA, the “PBM E-score” value was -0.0254. The result for ATCCCCCA reads -0.236; that for AATTACGT, 0.127.
